PMC6754381
No constants are given. Whether binding was seen depends on the method and setting. Binding calls can cover weak binding; strength is not graded here.

Molecular target: T1, Dab2 on the HuProt v3.1 human proteome array (human) (UniProt P98082)
T1 sequence: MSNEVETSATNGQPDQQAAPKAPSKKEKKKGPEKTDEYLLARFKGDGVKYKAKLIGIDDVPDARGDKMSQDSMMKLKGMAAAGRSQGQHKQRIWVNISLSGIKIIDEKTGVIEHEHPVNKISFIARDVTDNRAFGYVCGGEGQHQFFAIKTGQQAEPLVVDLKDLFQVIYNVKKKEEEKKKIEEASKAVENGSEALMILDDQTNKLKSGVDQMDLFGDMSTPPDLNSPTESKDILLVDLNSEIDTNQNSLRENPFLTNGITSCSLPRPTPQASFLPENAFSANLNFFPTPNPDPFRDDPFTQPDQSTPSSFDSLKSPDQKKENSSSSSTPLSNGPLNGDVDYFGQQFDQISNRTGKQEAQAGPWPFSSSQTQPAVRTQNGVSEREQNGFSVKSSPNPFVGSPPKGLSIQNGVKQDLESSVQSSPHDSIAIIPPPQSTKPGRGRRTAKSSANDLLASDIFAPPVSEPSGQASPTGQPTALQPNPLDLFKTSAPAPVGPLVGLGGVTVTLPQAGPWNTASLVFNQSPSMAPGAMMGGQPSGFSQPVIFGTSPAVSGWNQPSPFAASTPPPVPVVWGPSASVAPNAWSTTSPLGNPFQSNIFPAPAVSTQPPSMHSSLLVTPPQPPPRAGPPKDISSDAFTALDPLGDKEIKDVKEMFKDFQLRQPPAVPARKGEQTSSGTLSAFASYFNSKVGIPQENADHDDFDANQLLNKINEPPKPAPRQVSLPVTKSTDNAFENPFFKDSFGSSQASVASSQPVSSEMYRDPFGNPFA
Assay: peptide or protein array; recombinant LCN-2 probed at 1 ug/mL on HuProt v3.1 human proteome array plates; triplicate; hits with Z-score above 6; both purified

binding: binds
Substance: Recombinant LCN-2 (lipocalin-2)
